The source of these data is publication PMC12040169 (PLOS Biology, 2025).

The list shows a part of the results.

The test system of this assay is T1, CTL2-GFP (C. trachomatis L2/434/Bu, GFP-expressing).
T1 construct: L2/434/Bu, GFP-expressing
More on the design: species or system HeLa; Intracellular C. trachomatis growth in HeLa cells, bulk GFP fluorescence relative to DMSO. Conditions: bulk GFP, single well; 28.5 h, 10 µM; inhibitor.
`O=S(=O)(NCC1CCCO1)c1cccs1` (centres unmarked) [CBK044263]: the “% of control remaining” value amounted to 85.4326%.

On to `COc1ccc(C(=O)Nc2ccc3oc(-c4cccc(C)c4)nc3c2)cc1Br` [CBK261944], for which the “% of control remaining” value was determined as 100%.

As to `O=C(O)CCCn1cc(NC(=O)c2cccs2)cn1` [CBK270122], the “% of control remaining” value stood at 138.63%.

With `O=C(C1=C(O)C(=O)N(CCCN2CCOCC2)C1c1cccnc1)c1ccco1` (centres unmarked) [CBK264528], the “% of control remaining” value is given as 132.7%.

Regarding `CCN1CCCC1CNC(=O)C1(O)c2ccccc2NC(=O)N1c1ccccc1` (centres unmarked) [CBK288554], the “% of control remaining” value was determined as 102.134%.

In the case of `Cn1ccc(C2=C(N)C(C#N)C3=C(CC(C)(C)CC3=O)O2)c1` (centres unmarked) [CBK022168], the “% of control remaining” value was 156.598%.

Turning to `COc1nnc(-c2ccc(C)cc2)c2ccccc12` [CBK263466], the “% of control remaining” value is reported as 94.2289%.

For `CCCn1c(C)nnc1CN(CC1CCCO1)C1CCC(C)CC1` (centres unmarked) [CBK304485], the “% of control remaining” value was determined as 122.392%.

As for `Cc1cc(C)cc(NC(=O)C2C3C=CC(O3)C2C(=O)O)c1` (centres unmarked) [CBK262642], the “% of control remaining” value is 115.172%.

On to `O=C(CCN1C(=O)/C(=C\c2cccs2)SC1=S)Nc1cc(Cl)ccc1O` [CBK263643], for which the “% of control remaining” value stood at 116.627%.

Consider `CCC1SC2=NC(C)=C(C(=O)OCc3ccccc3)C(c3ccccc3)N2C1=O` (centres unmarked) [CBK293960], for which the “% of control remaining” value came to 162.269%.

As for `CCN(Cc1ccc(OC)c(OC)c1)C(=O)CSc1nc(CC(=O)O)cs1` [CBK296643], the “% of control remaining” value stood at 94.9795%.

Consider `Cc1ccc(N(CC(=O)O)S(C)(=O)=O)cc1C` [CBK286978], for which the “% of control remaining” value is listed as 135.086%.

For the molecule `Cn1c(SCC(=O)Nc2cccc(C(=O)O)c2)nnc1-c1ccccc1` [CBK300479], the “% of control remaining” value was 136.292%.

In the case of `O=C(C1CC1)N1C[C@H]2CCCN(S(=O)(=O)c3cccs3)[C@H]2C1` [CBK282255], the “% of control remaining” value was 173.566%.

In the case of `CCN1CC(C(=O)Nc2nc3c(s2)CCCCCC3)CC1=O` (centres unmarked) [CBK281526], the “% of control remaining” value is listed as 149.594%.

Consider `O=C(Nc1snnc1-c1ccc(Cl)cc1)c1ccc(OC(F)(F)F)cc1` [CBK153247], for which the “% of control remaining” value came out at 1.735%.

For the molecule `CCc1cc(C(=O)NC(Cn2ccnc2)C(C)(C)C)cc(=O)[nH]1` (centres unmarked) [CBK304410], the “% of control remaining” value is given as 155.177%.

Regarding `OCCCNc1nccnc1-c1cccc(F)c1` [CBK088976], the “% of control remaining” value is given as 197.199%.

As for `COc1cc(C(C)c2cc3c(cc2OCC(=O)O)OCO3)cc(OC)c1OC` (centres unmarked) [CBK200109], the “% of control remaining” value came out at 110.802%.

Consider `CCNC(=O)N1CC2(CCN(CCOc3ccc(OC)cc3)CC2)c2ccccc21` [CBK144600T], for which the “% of control remaining” value is 69.5214%.

As to `Cn1cc(CN2CCC(c3cncc(-c4cccc(C(F)(F)F)c4)n3)CC2)cn1` [CBK286150], the “% of control remaining” value stood at 126.428%.

Turning to `CC(=O)Nc1ccc(-c2nc3c4ccccc4c4ccc(I)cc4c3[nH]2)cc1` [CBK262667], the “% of control remaining” value amounted to 124.478%.

Turning to `O=C(Nc1ccncc1)OCCNC(=O)c1ccncc1` [CBK262150], the “% of control remaining” value came out at 100%.

Turning to `CC(=O)N/N=C(\C)c1ccc(-n2cnnn2)cc1` [CBK261252], the “% of control remaining” value came out at 100%.

Turning to `O=C(CO)N1CC2(CCN(CCCn3c(=O)[nH]c4ccccc43)CC2)c2ccccc21` [CBK131506], the “% of control remaining” value is recorded as 101.731%.

For the molecule `COc1ccc(CC(=O)Nc2ccc3n(c2=O)C[C@H]2C[C@@H]3CN(C(C)=O)C2)cc1` [CBK289203], the “% of control remaining” value is recorded as 137.6%.

As to `CCN(C)Cc1cccc(CNc2ncnc3c2cnn3CCC#N)c1` [CBK305959], the “% of control remaining” value is reported as 143.375%.

Regarding `OC(CNCC1COc2ccccc2O1)C(F)(F)F` (centres unmarked) [CBK074834], the “% of control remaining” value stood at 99.3456%.

With `Cc1nn(C)cc1C(C)NC(=O)C1CC2C=CC1C21CC1` (centres unmarked) [CBK282088], the “% of control remaining” value was 125.163%.

Regarding `COc1ccc(Br)c(C(=O)Nc2cc(N3CCNCC3)c3occc3c2)c1` [CBK061757C], the “% of control remaining” value turned out to be 102.326%.

With `CC(=O)NC(NC(=S)Nc1sc2c(c1C#N)CCCC2)C(Cl)(Cl)Cl` (centres unmarked) [CBK261053], the “% of control remaining” value turned out to be 110.048%.

Take `O=C(Oc1ccc(-n2ccnc2)cc1)c1ccc(-c2ccccc2)cc1` [CBK095145]: the “% of control remaining” value is on record as 100%.

In the case of `c1nncn1/N=C1/CCCc2nonc21` [CBK261065], the “% of control remaining” value came to 105.474%.

With `O=C(Nc1ccc(Cc2ccc(NC(=O)c3ccccc3F)c(O)c2)cc1O)c1ccccc1F` [CBK268366], the “% of control remaining” value worked out at 138.883%.

For the molecule `CC(Oc1ccccc1)C(=O)Nc1c[nH]c(=O)[nH]c1=O` (centres unmarked) [CBK266524], the “% of control remaining” value turned out to be 129.7%.

As for `O=S(=O)(Nc1ccccn1)N1CCOCC1` [CBK269391], the “% of control remaining” value came to 141.649%.

`Cc1cc(C(=O)O)cc(S(=O)(=O)N2CCOCC2)c1C` [CBK264497]: the “% of control remaining” value is 133.401%.

Take `O=C(O)CC1(CC(=O)N2CC[C@H]3NC(=O)N(c4ccc(F)cc4)C(=O)[C@H]32)CCCC1` [CBK289327]: the “% of control remaining” value came out at 119.919%.

For `O=C(CN1CCCCCC1)Nc1sc2c(c1C(=O)Nc1ccc(Br)cc1)CCC2` [CBK265076], the “% of control remaining” value is recorded as 91.6441%.

With `CNc1ncnc2c1ncn2C1CC(O)C(CO)O1` (centres unmarked) [CBK201308], the “% of control remaining” value is recorded as 186.255%.

For the molecule `COc1cccc2ncn(CCc3n[nH]c(N)n3)c(=O)c12` [CBK307301], the “% of control remaining” value was determined as 157.914%.

`Cc1nc(C(Cc2ccsc2)NC(=O)c2cnn(C)c2)sc1C` (centres unmarked) [CBK284779]: the “% of control remaining” value amounted to 81.2245%.

Regarding `COc1ccc(C(N2CCOCC2)N2CCOCC2)cc1` [CBK261002], the “% of control remaining” value is 112.27%.

As for `COCCSc1nnc(NS(=O)(=O)Cc2ccccc2)s1` [CBK267535], the “% of control remaining” value was determined as 140.42%.

In the case of `COc1cc(OC)nc(CN2CCOC3(CCN(C(=O)OCc4ccccc4)CC3)C2)n1` [CBK161101T], the “% of control remaining” value was 123.47%.

As for `Cc1ccc(S(=O)(=O)Nc2ccc3[nH]ccc3c2)cc1` [CBK153519], the “% of control remaining” value is 73.9904%.

On to `O=C1CC(c2cccnc2)c2sc(N3CCOCC3)nc2N1` (centres unmarked) [CBK287927], for which the “% of control remaining” value is given as 142.265%.

Consider `COc1cccc(CSC2=C(C#N)C(c3cccs3)C(C(=O)Nc3ccccc3)=C(C)N2)c1` (centres unmarked) [CBK267458], for which the “% of control remaining” value worked out at 135.34%.

Consider `COc1cc(S(=O)(=O)Oc2ccc(OCc3ccccc3)cc2)ccc1Cl` [CBK264132], for which the “% of control remaining” value came to 109.108%.

Take `O=S(=O)(c1ccccc1)N1CCC(c2cc3ncccc3[nH]2)CC1` [CBK283397]: the “% of control remaining” value came to 96.8431%.

As to `CCC(CNC(=O)c1cc(-c2ccco2)nc2c(C(N)=O)ncn12)c1ccccc1` (centres unmarked) [CBK297779], the “% of control remaining” value was found to be 171.718%.

In the case of `CC(=O)N1CCc2cc(NC(=O)c3cc4cc(C)ccc4o3)ccc21` [CBK281470], the “% of control remaining” value is reported as 132.406%.

As to `O=C(Nc1ccccc1)Nc1nc(=O)n(-c2ccccc2)s1` [CBK070710], the “% of control remaining” value came out at 106.208%.

Consider `COc1ccc(CN2CC(C(=O)O)C2)cc1Cn1cncn1` [CBK307284], for which the “% of control remaining” value is 144.34%.

For the molecule `Fc1ccc(-c2cc(CC3(NCc4ccc5c(c4)OCO5)COC3)no2)cc1` [CBK289654], the “% of control remaining” value is reported as 101.924%.

Consider `CCN1CCN(C(=O)c2cc(C)[nH]n2)CC1` [CBK200377], for which the “% of control remaining” value is on record as 118.493%.

As for `COc1ccc(CN(Cc2ccsc2)[C@@H]2COC[C@H]2c2ccc(F)cc2)cc1` [CBK286485], the “% of control remaining” value was 74.7867%.

As to `CC1(C)CC(N(Cc2ccccc2)Cc2ncc[nH]2)CC(C)(C)N1` [CBK283179], the “% of control remaining” value worked out at 103.87%.

With `CCn1nc(C)c(-c2cncn2CCCOc2ccccc2C)c1C` [CBK281761], the “% of control remaining” value was found to be 128.908%.

For the molecule `CCNC(=O)N1CC2(CCN(CCOc3ccccc3)CC2)c2ccccc21` [CBK122701], the “% of control remaining” value is 99.6486%.

For `Cc1cccc(CN(Cc2ccccc2)C(=O)CCc2ccncc2)n1` [CBK282101], the “% of control remaining” value was 137.26%.

In the case of `CC(C)CC(NS(=O)(=O)c1cccc2nsnc12)C(=O)O` (centres unmarked) [CBK217288], the “% of control remaining” value is given as 116.517%.

For `CN(C)CC(C)(C)CNC(=O)c1cc(-c2ccc(Cl)cc2)on1` [CBK116561], the “% of control remaining” value amounted to 111.204%.

On to `Cc1cc(CN(C)C(=O)c2cccc(NC(=O)C3CCCCC3)c2)no1` [CBK305722], for which the “% of control remaining” value came to 95.5162%.

For `NS(=O)(=O)c1ccc(CCNC2CC(=O)N(Cc3ccccc3)C2=O)cc1` (centres unmarked) [CBK267439], the “% of control remaining” value was 135.227%.

As to `Cn1nnc2cc(NCC34CC3CN(C(=O)OC(C)(C)C)C4)ccc21` (centres unmarked) [CBK304758], the “% of control remaining” value was 104.468%.

Turning to `Cc1[nH]c2cccc(C(=O)N(C)CCc3cn[nH]c3)c2c1C` [CBK283070], the “% of control remaining” value came to 125.028%.

Consider `N#Cc1cccc(CN2C[C@H](O)C[C@H]2c2nc(Cc3ccccc3)no2)c1` [CBK288842], for which the “% of control remaining” value is 140.884%.

Turning to `O=C(CSc1ccc2nnc(-c3ccc(F)cc3)n2n1)N1CCCCC1` [CBK287520], the “% of control remaining” value came to 140.386%.

As for `CN(C)CC1CCCCN1C(=O)C1CC(=O)N(c2cccc(F)c2)C1` (centres unmarked) [CBK282192], the “% of control remaining” value worked out at 48.5002%.

As to `CCOC(=O)N1CCC(NS(=O)(=O)c2ccc3c(c2)oc(=O)n3C)CC1` [CBK304666], the “% of control remaining” value stood at 111.992%.

Take `NNc1ccc(/C=C/c2ccc(NN)cc2S(=O)(=O)O)c(S(=O)(=O)O)c1` [CBK278163N]: the “% of control remaining” value turned out to be 124.201%.

For `Cc1nc(C)n(CC2CCCN(S(=O)(=O)c3cnc4ccsc4c3)C2)n1` (centres unmarked) [CBK306274], the “% of control remaining” value came out at 78.9519%.

For the molecule `Cc1ccc(C)c(C(C)NC(=O)C2CCCN(S(C)(=O)=O)C2)c1` (centres unmarked) [CBK304672], the “% of control remaining” value came out at 104.831%.

`O=C1c2ccccc2C(=O)N1CCCc1nn2c(-c3cccnc3)nnc2s1` [CBK270140]: the “% of control remaining” value is reported as 142.693%.

Regarding `O=C(CCn1cnc2ccccc2c1=O)Nc1ccc(Cl)c(Cl)c1` [CBK266738], the “% of control remaining” value is recorded as 143.009%.

With `Nc1nnc(SCC(=O)NCc2ccc3c(c2)OCO3)s1` [CBK267853], the “% of control remaining” value came out at 115.793%.

`CO[C@H]1CC[C@H](C(=O)NC(Cc2ccsc2)c2cccnc2)CC1` (some centres unmarked) [CBK285114]: the “% of control remaining” value is recorded as 94.9559%.

Turning to `C=CCn1c(Cc2csc(NC(=O)c3cc(C)cc(C)c3)n2)n[nH]c1=S` [CBK295358], the “% of control remaining” value worked out at 161.17%.
